No constants are given. Whether binding was seen depends on the method and setting. Some results given as binding are weak or reduced against the parent protein; the word gives no strength. Where a sequence is shown, tags or fusion partners need not be part of it.
Biological target: T1, HIS-tagged Aurora-A (UniProt O14965)
T1 sequence: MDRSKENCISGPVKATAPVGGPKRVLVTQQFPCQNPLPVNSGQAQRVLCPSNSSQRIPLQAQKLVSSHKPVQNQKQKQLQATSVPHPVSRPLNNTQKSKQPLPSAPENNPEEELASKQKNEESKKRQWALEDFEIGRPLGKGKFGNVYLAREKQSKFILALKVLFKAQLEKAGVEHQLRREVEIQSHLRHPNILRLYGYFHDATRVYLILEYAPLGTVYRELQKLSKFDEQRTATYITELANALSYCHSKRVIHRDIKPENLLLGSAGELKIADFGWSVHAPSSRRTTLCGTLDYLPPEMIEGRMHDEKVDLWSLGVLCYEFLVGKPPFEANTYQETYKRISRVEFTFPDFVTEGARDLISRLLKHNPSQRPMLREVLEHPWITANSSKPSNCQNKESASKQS
Test: pull-down

Amino acid sequences for entries named in this document (tags omitted).
UniProt P06748: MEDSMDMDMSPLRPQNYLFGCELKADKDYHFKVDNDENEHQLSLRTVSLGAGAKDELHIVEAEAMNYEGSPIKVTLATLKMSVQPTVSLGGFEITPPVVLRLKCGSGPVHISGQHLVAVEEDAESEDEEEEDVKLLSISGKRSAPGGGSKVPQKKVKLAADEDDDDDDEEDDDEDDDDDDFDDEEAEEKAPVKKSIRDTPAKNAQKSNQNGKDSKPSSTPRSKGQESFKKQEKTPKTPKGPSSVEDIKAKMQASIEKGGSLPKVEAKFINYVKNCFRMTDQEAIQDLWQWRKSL

binding: binds
Substance: NPM (from UniProt P06748 1-294)

— paper doi:10.1101/2020.11.04.368498
